Among the data in article PMC7973409 are binding values, retold here.

Results are given in words; binding and its absence hold for the method and conditions named.

This assay has as its target T1, DbpA C-terminal construct comprising the C-terminal RecA domain plus the RRM (residues 209–457) (E. coli) (UniProt P21693).
T1 sequence: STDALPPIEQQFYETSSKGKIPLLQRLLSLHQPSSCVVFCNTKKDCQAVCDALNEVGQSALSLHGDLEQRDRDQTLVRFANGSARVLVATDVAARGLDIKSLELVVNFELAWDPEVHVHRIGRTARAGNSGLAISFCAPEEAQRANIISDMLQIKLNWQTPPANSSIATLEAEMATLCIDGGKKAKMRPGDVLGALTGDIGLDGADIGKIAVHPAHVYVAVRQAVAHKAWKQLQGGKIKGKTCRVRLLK
Nature of the assay: overlay of NMR spectra (1H13C-HMQC of the isolated constructs against full length DbpA); methyl spectra of each isolated construct compared with that of full length DbpA (residues 1-457); the two constructs were not mixed; 298 K, 800 MHz, perdeuterated ILMVA-labelled samples; both purified.

B1: DbpA N-terminal construct comprising the N-terminal RecA domain (residues 1–214) (domain or fragment, UniProt P21693 1-214)
chain: MTAFSTLNVLPPAQLTNLNELGYLTMTPVQAAALPAILAGKDVRVQAKTGSGKTAAFGLGLLQQIDASLFQTQALVLCPTRELADQVAGELRRLARFLPNTKILTLCGGQPFGMQRDSLQHAPHIIVATPGRLLDHLQKGTVSLDALNTLVMDEADRMLDMGFSDAIDDVIRFAPASRQTLLFSATWPEAIAAISGRVQRDPLAIEIDSTDALP
As to B1, the binding result is listed as “no binding”.
